Measured data: PubChem BioAssay AID743454 (Peter MacCallum Cancer Centre, 2014)

Test: 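Knock-downs lowering viability or raising caspase 3/7 activity in vorinostat-treated resistant cells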 (primary screen)
Cells: human HCT116-VR colon cancer cells, selected for vorinostat resistance
Reagents: siRNA pool against human genes, 40 nM siRNA pool
Duration: vorinostat for 24 h, read-out about 72 h after transfection
Treatment: vorinostat at 2.5 µM final
Measured: 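Cell viability by CellTiter-Fluor and caspase 3/7 activity by luminescence, each scaled to mock wells per plate, duplicates averaged, then robust z-scored over all plates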
Direction: viability robust z-score: higher = more viable cells than screen typical; caspase robust z-score: higher = more caspase 3/7 activity than screen typical
Rule for the call: 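Hits are knock-downs in viability class RV1/RV2 or caspase class CA1/CA2, excluding ones that killed cells in the no-drug cell-count arm; hits then retested with single siRNAs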
Here is an unselected part of about 18,000 reagents. In the full data, 450 (2.5%) are marked active. 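Single biological run; no consistent viability z cut-off exists, so the class columns, not z-scores, define the calls.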 A number with no mark means an inactive call.

{"target": "MC2R (melanocortin 2 receptor)", "viability hit class": "no change", "caspase hit class": "no change", "viability robust z-score": 0, "caspase robust z-score": -0.12}
{"target": "ZBTB26 (zinc finger and BTB domain containing 26)", "viability hit class": "no change", "caspase hit class": "no change", "viability robust z-score": 0.87, "caspase robust z-score": -0.51}
{"target": "SERPINB1 (serpin family B member 1)", "viability hit class": "no change", "caspase hit class": "no change", "viability robust z-score": -0.54, "caspase robust z-score": -0.96}
{"target": "COLGALT1 (collagen beta(1-O)galactosyltransferase 1)", "viability hit class": "no change", "caspase hit class": "no change", "viability robust z-score": 0.72, "caspase robust z-score": 0.02}
{"target": "DPY19L3 (dpy-19 like C-mannosyltransferase 3)", "viability hit class": "no change", "caspase hit class": "no change", "viability robust z-score": -0.55, "caspase robust z-score": 0.82}
{"target": "CDH5 (cadherin 5)", "viability hit class": "no change", "caspase hit class": "no change", "viability robust z-score": 0.03, "caspase robust z-score": 1.2}
{"target": "TRAK1 (trafficking kinesin protein 1)", "viability hit class": "no change", "caspase hit class": "no change", "viability robust z-score": -1.62, "caspase robust z-score": 0.24}
{"target": "KIF22 (kinesin family member 22)", "viability hit class": "no change", "caspase hit class": "no change", "viability robust z-score": -0.31, "caspase robust z-score": 0.57}
{"target": "TAS2R9 (taste 2 receptor member 9)", "viability hit class": "no change", "caspase hit class": "no change", "viability robust z-score": -2.27, "caspase robust z-score": -0.91}
{"target": "CFAP44 (cilia and flagella associated protein 44)", "viability hit class": "no change", "caspase hit class": "no change", "viability robust z-score": 1.51, "caspase robust z-score": -0.08}
{"target": "CYSTM1 (cysteine rich transmembrane module containing 1)", "viability hit class": "no change", "caspase hit class": "no change", "viability robust z-score": 0.24, "caspase robust z-score": -0.46}
{"target": "LGMN (legumain)", "viability hit class": "no change", "caspase hit class": "no change", "viability robust z-score": -0.2, "caspase robust z-score": -0.88}
{"target": "OR51B2 (olfactory receptor family 51 subfamily B member 2)", "viability hit class": "no change", "caspase hit class": "no change", "viability robust z-score": 1.07, "caspase robust z-score": -0.78}
{"target": "TLE2 (TLE family member 2, transcriptional corepressor)", "viability hit class": "no change", "caspase hit class": "no change", "viability robust z-score": 0.32, "caspase robust z-score": -0.98}
{"target": "ZNF675 (zinc finger protein 675)", "viability hit class": "no change", "caspase hit class": "no change", "viability robust z-score": 0.2, "caspase robust z-score": -1.09}
{"target": "TSPAN13 (tetraspanin 13)", "viability hit class": "no change", "caspase hit class": "no change", "viability robust z-score": 0.42, "caspase robust z-score": -0.9}

Only “viability robust z-score”, for 2 of the entries above:
DPY19L3 (dpy-19 like C-mannosyltransferase 3) = -0.55
CDH5 (cadherin 5) = 0.03

Further results:
{"target": "NUP155 (nucleoporin 155)", "viability hit class": "no change", "caspase hit class": "no change", "viability robust z-score": -0.12, "caspase robust z-score": 1.02}
{"target": "ZNF75D (zinc finger protein 75D)", "viability hit class": "no change", "caspase hit class": "no change", "viability robust z-score": 0.22, "caspase robust z-score": -0.6}
{"target": "BAGE2 (BAGE family member 2 (pseudogene))", "viability hit class": "no change", "caspase hit class": "no change", "viability robust z-score": -0.68, "caspase robust z-score": 3.46}
{"target": "CGAS (cyclic GMP-AMP synthase)", "viability hit class": "no change", "caspase hit class": "no change", "viability robust z-score": 0.62, "caspase robust z-score": 1.4}
{"target": "RARS1 (arginyl-tRNA synthetase 1)", "viability hit class": "no change", "caspase hit class": "no change", "viability robust z-score": -0.86, "caspase robust z-score": -0.98}
{"target": "RNASE6 (ribonuclease A family member 6)", "viability hit class": "no change", "caspase hit class": "no change", "viability robust z-score": -0.78, "caspase robust z-score": -0.9}
{"target": "SLC25A10", "viability hit class": "no change", "caspase hit class": "no change", "viability robust z-score": -1.21, "caspase robust z-score": -0.5}
{"target": "HFM1 (helicase for meiosis 1)", "viability hit class": "no change", "caspase hit class": "no change", "viability robust z-score": 0.62, "caspase robust z-score": -0.68}
{"target": "KBTBD6 (kelch repeat and BTB domain containing 6)", "viability hit class": "no change", "caspase hit class": "no change", "viability robust z-score": 0.68, "caspase robust z-score": -0.4}
{"target": "HJV (hemojuvelin BMP co-receptor)", "viability hit class": "no change", "caspase hit class": "no change", "viability robust z-score": -0.57, "caspase robust z-score": 1}
{"target": "PRG2 (proteoglycan 2, pro eosinophil major basic protein)", "viability hit class": "no change", "caspase hit class": "no change", "viability robust z-score": -1.32, "caspase robust z-score": 5.12}
